Measured values as given in PubChem BioAssay AID2685 (National Center for Advancing Translational Sciences (NCATS), 2010).
Some of the results follow. Further columns of the screen follow, without active or inactive calls. The list favours compounds with an active or inconclusive main result. Potencies come from curve fits of mixed quality, noted in brackets.

Assay: qHTS Assay for Lipid Storage Modulators in Drosophila S3 Cells;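 as to cell number change: cells counted by Cell Tracker Red CMTPX staining in the red channel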
Details: BODIPY lipid droplet fluorescence, 18-24 h; for cell number change: measured here: cell count max response, cells fed with added oleic acid
Summary of the method: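 Laser-scanning cytometry quantifies lipid droplet accumulation (500–530 nm total intensity; droplet/cell object ratio) in oleic acid-fed (400 uM added) Drosophila S3 cells treated with a concentration series. 20 uM Triacsin C defined 100% inhibition.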

[1] = measured here: lipid fluorescence (Fed channel) AC50, cells fed with added oleic acid
[2] = measured here: cell number channel AC50, cells fed with added oleic acid

SMILES | cell number change [%] | AC50 [1] | AC50 [2]
CC1CN(c2ncnc3c2cnn3-c2ccc(Cl)cc2)CC(C)O1 (configuration not stated) | 19.7 | 2.31 µM [falling, partial curve] | –
COCc1cc(C)nc(SCC(=O)Nc2ccc3[nH]c(=O)[nH]c3c2)c1C#N | 90.4 | – | 18.4 µM [rising, partial curve]
O=C(Nc1ccccc1C(F)(F)F)N1CCC(N2CCCCC2)CC1 | -8.4 | 0.146 µM [falling, full curve] | –
COc1ccc(COC(=O)c2ccc(S(=O)(=O)N3CCCCC3)cc2)cc1OC | 30 | – | –
CN(Cc1ccccc1)C(=O)COC(=O)C1CCN(S(=O)(=O)c2cccs2)CC1 | -14.3 | 1.16 µM [falling, full curve] | –
Cc1ccc(NC(=O)CN(C)S(=O)(=O)c2cccc3nsnc23)cc1 | – | – | 0.184 µM [rising, full curve, poor fit]
COc1cccc(OC)c1OCCNC(C)(C)C | 25.1 | 29.1 µM [rising, single point] | –
COc1ccc(NC2=NC(=S)N(c3ccc(C)cc3)C23CCCCC3)cc1 | – | 3.26 µM [rising, single point] | –
CC(=O)N1CCN(c2ccc(NC(=O)c3ccco3)cc2Cl)CC1 | – | 10.3 µM [rising, partial curve, poor fit] | –
CCN(CC(=O)NC(C)(C)C)C(=O)c1ccccc1SCC(=O)NC1CCCCCCC1 | -19.2 | – | –
Cc1ccc(-c2[nH]c3ccccc3c2SCCN)cc1 | 24.8 | 29.1 µM [rising, single point] | –
CCN(CC)C(CNS(=O)(=O)c1ccc(Cl)cc1)c1ccccc1 (configuration not stated) | -13.1 | 0.00517 µM [falling, full curve, poor fit] | –
Cc1ccc(NC(=O)c2ccc3nc(N4CCOCC4)sc3c2)c(Cl)c1 | 5.99 | 14.6 µM [rising, partial curve, poor fit] | –
COc1ccc(CCN2CC(C(=O)N(C)Cc3cccnc3)CC2=O)cc1OC (configuration not stated) | 32 | 29.1 µM [rising, single point] | 7.31 µM [rising, partial curve, poor fit]
CN1CC2(Cc3c1ccc1ccccc31)C(=O)OC(C)(C)OC2=O | -1.66 | 6.51 µM [falling, single point] | –
COC(=O)Cn1c2nc3ccccc3nc2c2cccc(C)c21 | – | – | 1.84 µM [rising, partial curve, poor fit]

SMILES | cell number change [%] | AC50 [1] | AC50 [2]
CSc1nc2sc3c(c2c(=O)n1C)CCCC3 | 23.1 | 29.1 µM [rising, single point] | –
O=C(c1ccc(Oc2ccc(C(F)(F)F)cc2[N+](=O)[O-])cc1)N1CCOCC1 | -27.9 | – | 1.64 µM [falling, single point]
Cc1ccc(O)c(C2=Nc3ccccc3N=C(c3ccc([N+](=O)[O-])cc3)C2)c1 | -8.99 | – | –
Cc1ccc(NC(=O)Cc2nnc(SCC(=O)Nc3ccccc3)n2C)cc1 | 7.83 | 14.6 µM [rising, single point] | –
C#CCOc1ccc(/C=N/NC(=O)c2cccnc2)cc1OCC | 36.3 | – | –
Cc1ccc(C(=O)c2c3ccc(C(F)(F)F)cc3[n+]([O-])n2CCCN)cc1 | -32.2 | 32.6 µM [falling, single point] | 10.3 µM [falling, single point]
O=C(CSc1ccc(-c2ccccc2)nn1)NCc1ccco1 | -33 | – | 9.2 µM [falling, partial curve]
COc1cc(/C=N/OCC(=O)Nc2ccc(OC(F)F)cc2)ccc1OCc1ccccc1 | 27.3 | 2.91 µM [falling, single point] | 0.82 µM [rising, full curve]
COCc1c(C(=O)NCC2COc3ccccc3O2)oc2ccccc12 (configuration not stated) | 20.6 | 13 µM [rising, partial curve] | –
Cc1ccc(S(=O)(=O)NC2c3cccc4cccc(c34)C2Sc2ncccn2)cc1 (configuration not stated) | -11.3 | 29.1 µM [falling, single point] | –
N#Cc1c(N)c(C(=O)c2ccccc2)n2c1CCCC2 | – | – | 0.291 µM [rising, single point]
CC1CCC(C(C)C)C(OC(=O)C[n+]2cc(-c3ccc(Cl)cc3)n3c2CCCCC3)C1 (configuration not stated) | -65.9 | 29.1 µM [falling, partial curve, poor fit] | 1.64 µM [falling, partial curve, poor fit]
COCCn1c(SCC(=O)Nc2ccc3c(c2)CCC3)nc2ccccc2c1=O | -31.4 | – | 18.4 µM [falling, single point]
C/C(=N\NC(=O)CC#N)c1cc2ccccc2oc1=O | – | 5.17 µM [rising, partial curve] | 6.51 µM [rising, single point]
NC(=O)N/N=C/c1c(F)c(F)c(F)c(F)c1F | -25.2 | 6.51 µM [falling, single point] | –

Not a retest: an excerpt of the list.
SMILES | cell number change [%] | AC50 [1] | AC50 [2]
O=C(CSc1ccc(-c2ccccc2)nn1)NCc1ccco1 | -33 | – | 9.2 µM [falling, partial curve]
COc1cc(/C=N/OCC(=O)Nc2ccc(OC(F)F)cc2)ccc1OCc1ccccc1 | 27.3 | 2.91 µM [falling, single point] | 0.82 µM [rising, full curve]
